# Measurements taken from article PMC4481533.
# By UniProt entry, the sequences of proteins in these tests, tags left out.
# UniProt P27694: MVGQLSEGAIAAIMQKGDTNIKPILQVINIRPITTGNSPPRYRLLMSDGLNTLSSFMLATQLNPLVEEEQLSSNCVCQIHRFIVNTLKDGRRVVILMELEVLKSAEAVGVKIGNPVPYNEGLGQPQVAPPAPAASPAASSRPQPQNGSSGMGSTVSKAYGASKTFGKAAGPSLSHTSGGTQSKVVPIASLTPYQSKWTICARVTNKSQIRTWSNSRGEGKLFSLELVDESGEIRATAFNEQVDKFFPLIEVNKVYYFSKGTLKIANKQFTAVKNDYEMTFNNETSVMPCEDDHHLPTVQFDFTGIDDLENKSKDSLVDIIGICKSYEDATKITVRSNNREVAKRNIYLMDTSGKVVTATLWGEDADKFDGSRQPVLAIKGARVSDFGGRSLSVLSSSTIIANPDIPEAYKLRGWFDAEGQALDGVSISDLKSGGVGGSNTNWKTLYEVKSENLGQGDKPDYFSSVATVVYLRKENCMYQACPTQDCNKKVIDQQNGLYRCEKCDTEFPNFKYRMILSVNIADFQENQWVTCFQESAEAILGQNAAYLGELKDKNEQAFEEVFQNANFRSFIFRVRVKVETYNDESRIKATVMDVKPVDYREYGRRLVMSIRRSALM
# UniProt P54274: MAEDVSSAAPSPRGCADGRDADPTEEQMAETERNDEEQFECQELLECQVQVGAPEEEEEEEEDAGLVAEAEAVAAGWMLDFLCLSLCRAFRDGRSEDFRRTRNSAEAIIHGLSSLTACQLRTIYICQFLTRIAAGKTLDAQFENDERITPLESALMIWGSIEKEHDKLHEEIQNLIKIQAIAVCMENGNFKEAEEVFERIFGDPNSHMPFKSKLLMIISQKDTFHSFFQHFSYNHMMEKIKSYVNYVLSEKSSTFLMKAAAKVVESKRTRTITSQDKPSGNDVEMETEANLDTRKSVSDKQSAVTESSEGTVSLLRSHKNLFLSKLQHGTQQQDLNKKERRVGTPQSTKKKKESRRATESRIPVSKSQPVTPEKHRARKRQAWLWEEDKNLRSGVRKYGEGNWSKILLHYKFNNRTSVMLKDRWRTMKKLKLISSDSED
# UniProt P12004: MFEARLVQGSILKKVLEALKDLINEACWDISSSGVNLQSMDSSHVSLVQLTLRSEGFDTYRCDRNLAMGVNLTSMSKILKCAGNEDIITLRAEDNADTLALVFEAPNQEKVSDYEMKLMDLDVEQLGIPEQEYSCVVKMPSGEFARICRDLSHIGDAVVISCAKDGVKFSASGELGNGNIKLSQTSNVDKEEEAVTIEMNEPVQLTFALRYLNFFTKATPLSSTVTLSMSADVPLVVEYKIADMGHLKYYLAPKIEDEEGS
# No constants are given. Whether binding was seen depends on the method and setting. In cells and extracts the contact can be indirect. Some entries that bind do so weakly or less than the wild type. Sequences can lack the tags named with a protein.
# Target: T1, GST-AKTIP fusion protein (full length AKTIP) (human) (UniProt Q9H8T0)
# T1 sequence: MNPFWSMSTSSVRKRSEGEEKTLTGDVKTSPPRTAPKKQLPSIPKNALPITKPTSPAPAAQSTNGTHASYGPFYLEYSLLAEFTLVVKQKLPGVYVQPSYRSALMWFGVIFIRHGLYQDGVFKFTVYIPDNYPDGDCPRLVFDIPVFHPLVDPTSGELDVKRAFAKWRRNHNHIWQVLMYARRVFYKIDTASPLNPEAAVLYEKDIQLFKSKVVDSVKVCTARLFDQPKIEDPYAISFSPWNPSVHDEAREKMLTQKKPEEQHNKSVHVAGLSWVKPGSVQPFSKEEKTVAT
# Test: pull-down; GST pulldown with bacterially expressed, purified GST-AKTIP from 293T cell extracts; bound proteins detected by immunoblotting; only the target purified
row,Substance,binding
1,"RPA70 (endogenous, 293T cell extract) (from UniProt P27694 1-616)",binds
2,"TRF1 (endogenous, 293T cell extract) (from UniProt P54274 1-439)",binds
3,"PCNA (proliferating cell nuclear antigen; endogenous, 293T cell extract) (from UniProt P12004 1-261)",binds
